The data set has as its target T1, Hermes BED domain (Musca domestica) (UniProt Q25442).
T1 sequence (looked up): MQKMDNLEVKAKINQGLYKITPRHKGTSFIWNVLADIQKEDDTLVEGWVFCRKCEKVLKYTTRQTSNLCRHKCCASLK
Nature of the data set: SEC. Particulars: recombinant protein, residues 1-78, protein details: untagged.

A weaker result is weaker than the reference pair of the same experiment. Tags and fusion partners may be left off the protein sequences shown. The exact form of at least one protein or probe is not confirmed. At least one verdict rests on a figure or table, not on a statement of the authors.

Take “CAACAAGCCACAGGCAA (double strand) [RE11-27]”: the binding result (no stable complex, similar to ran17) is recorded as “binds more weakly”. Turning to “CGCGATGAGTTCTCGAC (double strand) [ran17]”, the binding result (label: 5'-6FAM top strand (EMSA)) is “binds more weakly”.

With “CAACAAGCGTTTTATTT (double strand) [LE11-27mutC]”, the binding result (weak, comparable to ran17) is “binds more weakly”.

In the case of “CAACAAGTCACAGGCAA (double strand) [RE11-27T]”, the binding result (no stable complex) was “binds more weakly”. For the sequence “CGGCAAGTGTTTTATTT (double strand) [LE11-27mut-5'G (5'GC)]”, the binding result (3' AT-rich region retained) was “binds”. Regarding “CGGCAAGTGGCGCATTT (double strand) [LE11-27mut-5'3'G (5'3'GC)]”, where the note is “AT-rich region after AAGT removed”, the binding result is “binds more weakly”.

These data come from publication PMC10368747, “Zinc-finger BED domains drive the formation of the active Hermes transpososome by asymmetric DNA binding”.
